These results are taken from the supplement of paper PMC4749390.

The structures appear in SMILES notation. Counter-ions that a name gives are not always drawn. This is one part of the list. This data set is noisy: repeats of one test often differ as much as different tests do.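 JEG3 cells stably express tetracycline-inducible wild-type human LRH-1, a highly sumoylated nuclear receptor. SUMO-sensitive transcripts APOC3 and MUC1, increased by SUMO-deficient LRH-1 or UBC9 knockdown, were quantified by RT-qPCR relative to TBP and DMSO controls. Primary hits had robust Z-scores above +2 or below -2, before toxicity and TBP filtering.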

This assay deals with JEG3 expressing hLRH-1. Put plainly: APOC3 transcript change (ddCt vs TBP and DMSO), Z-score over library; higher = higher APOC3 expression. To be noted: 10 µM; time (hr): 24.
As to `NNCCc1ccccc1` [phenelzine sulfate], the “APOC3 transcript change (Z-score)” value turned out to be 0.321.
To `CCc1cn(C2OCC(O)C2CO)c(=O)[nH]c1=O` (stereo unspecified) [edoxudine] belongs -0.301; to `C=C1CC[C@H](O)C/C1=C/C=C1\CCC[C@]2(C)[C@@H]([C@H](C)CCCC(C)C)CC[C@@H]12` [cholecalciferol], 0.665; to `CC[C@@H]1OC(OC(c2c[nH]cn2)C(NC(=O)c2nc(C(CC(N)=O)NCC(N)C(N)=O)nc(N)c2C)C(=O)NC(C)C(O)C(C)C(=O)NC(C(=O)NCCc2nc(-c3nc(C(=O)NCCCCN=C(N)N)cs3)cs2)C(C)O)[C@@H](O[C@H]2O[C@H](CO)[C@@H](O)[C@H](OC(N)=O)[C@@H]2O)[C@@H](C)[C@@H]1C` (stereo partly specified) [bleomycin (bleomycin b2 shown)], 0.722.
The figure for `CN(C)c1ccc(C(=C2C=CC(=[N+](C)C)C=C2)c2ccc(N(C)C)cc2)cc1` [gentian violet] is -0.651; for `CC(=O)S[C@@H]1CC2=CC(=O)CC[C@]2(C)[C@H]2CC[C@@]3(C)[C@@H](CC[C@@]34CCC(=O)O4)[C@H]12` [spironolactone] it is -1.78; for `O=C(OCC(O)CO)c1ccccc1Nc1ccnc2cc(Cl)ccc12` (stereo unspecified) [glafenine] it is 0.0413.
The figure for `CN1CCC(=C2c3ccccc3CCc3sccc32)CC1` [pizotyline malate] is -0.449; for `OC(Cn1cncn1)(Cn1cncn1)c1ccc(F)cc1F` [fluconazole] it is -0.981; for `CN1CCN(CC/C=C2/c3ccccc3Sc3ccc(S(=O)(=O)N(C)C)cc32)CC1` [thiothixene] it is -0.178.
As for `O=C(c1ccc(OCCN2CCCCC2)cc1)c1c(-c2ccc(O)cc2)sc2cc(O)ccc12` [raloxifene hydrochloride], the “APOC3 transcript change (Z-score)” value stood at 0.821.
Consider `CN1CCN(CC(=O)N2c3ccccc3C(=O)Nc3cccnc32)CC1` [Pirenzepine dihydrochloride], for which the “APOC3 transcript change (Z-score)” value was determined as 0.194.
To `C=CC(N)CCC(=O)O` (racemic) [(±)-gamma-Vinyl GABA] belongs -0.338; to `CC(C)(C)NCC(O)COc1cccc2c1CCC(=O)N2` (stereo unspecified) [carteolol hydrochloride], -0.395; to `FCOC(C(F)(F)F)C(F)(F)F` [sevoflurane], -0.00408.
For `CCN(CC)CCCC(C)Nc1ccnc2cc(Cl)ccc12` (stereo unspecified) [Chloroquine phosphate], the “APOC3 transcript change (Z-score)” value came to 0.417.
The figure for `CS(=O)(=O)c1ccc([C@@H](O)[C@@H](CF)NC(=O)C(Cl)Cl)cc1` [florfenicol] is -0.261; for `CC(C)NCC(O)COc1cccc2ccccc12` (racemic) [(±)-Propranolol hydrochloride] it is -0.75; for `Oc1ccc(C2CNCCc3c2cc(O)c(O)c3Cl)cc1` (stereo unspecified) [fenoldipam mesylate] it is -0.286.
As to `N[C@@H](CC(=O)O)C(=O)O` [L-Aspartic acid], the “APOC3 transcript change (Z-score)” value was found to be 0.189.
Regarding `CC(=O)O[C@]1(C(C)=O)CCC2C3C=C(Cl)C4=CC(=O)CC[C@]4(C)C3CC[C@@]21C` (stereo partly specified) [chlormadinone acetate], the “APOC3 transcript change (Z-score)” value was determined as 0.399.
To `CCCCCN(C)CCC(O)(P(=O)(O)O)P(=O)(O)O` [ibandronate sodium] belongs -1.02; to `C[Se]CC[C@H](N)C(=O)O` [selenomethionine], 0.967.
With `CCCCCCOC(=O)NC(=N)c1ccc(NCc2nc3cc(C(=O)N(CCC(=O)OCC)c4ccccn4)ccc3n2C)cc1` [dabigatran etexilate mesylate], the “APOC3 transcript change (Z-score)” value worked out at 0.673.
The figure for `CN(C)c1cnccn1` [ampyzine sulfate] is -1.25; for `O=C1CC[C@@H](C(=O)N2CSC[C@H]2C(=O)O)N1` [pidotimod] it is -1.29.
The figure for `CN(C)CCC=C1c2ccccc2C=Cc2ccccc21` [cyclobenzaprine hydrochloride] is -1.36; for `CC(=O)OCC(=O)NCCCOc1cccc(CN2CCCCC2)c1` [roxatidine acetate hydrochloride] it is 0.317.
To `O=C(CCCl)NCc1ccccc1` [beclamide] belongs 0.306; to `CCO/C(O)=C1/C(C)=NC(C)=C(C(=O)OC)C1c1cccc(Cl)c1Cl` (stereo unspecified) [felodipine], -1.45; to `C[C@]12CCC(=O)C=C1CCC1C2C(=O)C[C@@]2(C)C1CC[C@]2(O)C(=O)CO` (stereo partly specified) [cortisone], 0.423.
Regarding `CCCCC/C=C/CCC(=O)N[C@H]1[C@H](Oc2c3cc4cc2Oc2ccc(cc2Cl)[C@@H](O[C@@H]2O[C@H](CO)[C@@H](O)[C@H](O)[C@H]2NC(C)=O)[C@@H]2NC(=O)[C@H](NC(=O)[C@@H]4NC(=O)[C@H]4NC(=O)C(Cc5ccc(c(Cl)c5)O3)NC(=O)[C@H](N)c3ccc(O)c(c3)Oc3cc(O)cc4c3)c3ccc(O)c(c3)-c3c(OC4O[C@H](CO)[C@@H](O)[C@H](O)[C@@H]4O)cc(O)cc3[C@@H](C(=O)O)NC2=O)O[C@H](CO)[C@@H](O)[C@@H]1O` (stereo partly specified) [teicoplanin [a(2-1) shown]], the “APOC3 transcript change (Z-score)” value was 0.0798.
With `CC(C(=O)O)c1cccc(Oc2ccccc2)c1` (stereo unspecified) [fenoprofen], the “APOC3 transcript change (Z-score)” value is -0.143.
To `CC(C)(C)NCC(O)COc1cccc2c1C[C@H](O)[C@H](O)C2` (stereo partly specified) [nadolol] belongs 0.942; to `CCN(CC)Cc1ccc(Nc2ccnc3cc(Cl)ccc23)cc1O` [amodiaquine dihydrochloride], 0.249.
To `N=C(N)NC(=O)c1nc(Cl)c(N)nc1N` [Amiloride hydrochloride] belongs 2.43; to `CCCc1ncc(C[n+]2ccccc2C)c(N)n1` [amprolium], 0.00216.
The figure for `CO[C@H]1/C=C/O[C@@]2(C)Oc3c(C)c(O)c4c(O)c(c(/C=N/N5CCN(C)CC5)c(O)c4c3C2=O)NC(=O)/C(C)=C\C=C\[C@H](C)[C@H](O)[C@@H](C)[C@@H](O)[C@@H](C)[C@H](OC(C)=O)[C@@H]1C` [rifampin] is -0.537; for `CC(C)NCC(O)c1ccc(O)c(O)c1` (racemic) [(±)-Isoproterenol hydrochloride] it is -0.0182; for `CCCSc1ccc2[nH]c(NC(=O)OC)nc2c1` [albendazole] it is 0.261.
With `CCc1ccc(CCOc2ccc(CC3SC(=O)NC3=O)cc2)nc1` (stereo unspecified) [pioglitazone hydrochloride], the “APOC3 transcript change (Z-score)” value worked out at 0.458.
On to `Nc1ccn([C@H]2CC[C@@H](CO)O2)c(=O)n1` [zalcitabine], for which the “APOC3 transcript change (Z-score)” value was determined as 0.805.
Take `Cc1ccc(NC(=O)c2ccc(CN3CCN(C)CC3)cc2)cc1Nc1nccc(-c2cccnc2)n1` [imatinib]: the “APOC3 transcript change (Z-score)” value was -0.588.
`Nc1ccc(O)c(C(=O)O)c1` [mesalamine]: the “APOC3 transcript change (Z-score)” value was -0.372.
The figure for `CC(C)(Oc1ccc(CCNC(=O)c2ccc(Cl)cc2)cc1)C(=O)O` [bezafibrate] is 0.0836; for `CC1/C=C/C=C/C=C/C=C/C=C/C=C/C=C/C(O[C@@H]2O[C@H](C)[C@H](O)[C@@H](O)[C@@H]2N)CC(O)C(C(=O)O)C(O)CC(=O)CC(O)CC(O)CC(O)CC(=O)CCCC(=O)CC(=O)OC1C(C)CC(C)C(O)CC(=O)c1ccc(N)cc1` (stereo partly specified) [candicidin] it is 0.527.
As for `Cc1cccc(C)c1NC(=O)c1ccccc1C(=O)O` [ftaxilide], the “APOC3 transcript change (Z-score)” value stood at 0.0265.
To `NS(=O)(=O)c1cc2c(cc1Cl)NC(CSCc1ccccc1)=NS2(=O)=O` [benzthiazide] belongs -0.539.
To `NC(=O)c1ccccc1O` [salicylamide] belongs 0.0633; to `c1ccc(CN(CC2=NCCN2)c2ccccc2)cc1` [antazoline phosphate], 0.256; to `Oc1c(Br)cc(Br)c2cccnc12` [broxyquinoline], -0.0986.
With `O=C(O)Cc1ccccc1Nc1c(Cl)cccc1Cl` [Diclofenac sodium], the “APOC3 transcript change (Z-score)” value amounted to 0.65.
To `CC(=O)[C@@]12O[C@](C)(c3ccccc3)O[C@@H]1C[C@H]1[C@@H]3CCC4=CC(=O)CC[C@]4(C)[C@H]3CC[C@@]12C` [algestone acetophenide] belongs 0.188; to `NC(=O)c1cc[n+](CC2=C(C(=O)O)N3C(=O)C(NC(=O)C(c4ccccc4)S(=O)(=O)[O-])C3SC2)cc1` (stereo unspecified) [cefsulodin sodium], 1.59.
To `N#Cc1ccc(C(c2ccc(C#N)cc2)n2cncn2)cc1` [letrozole] belongs -0.439; to `CC(CN1c2ccccc2Sc2ccccc21)N(C)C` (stereo unspecified) [Promethazine hydrochloride], -0.51; to `CCN(CC)CCOc1ccc2c(c1)C(=O)c1cc(OCCN(CC)CC)ccc1-2` [tilorone], 3.62.
The figure for `CC(C)[C@@H]1CC[C@@H](C)C[C@H]1O` [(-)-menthol] is -0.268.
Take `CC1=C(C(=O)O)N2C(=O)[C@@H](NC(=O)C(N)c3ccccc3)[C@H]2SC1` (stereo partly specified) [cephalexin]: the “APOC3 transcript change (Z-score)” value was 0.665.
As for `CCOc1ccc2nc(S(N)(=O)=O)sc2c1` [ethoxzolamide], the “APOC3 transcript change (Z-score)” value is 0.0405.
The figure for `CCOC(=O)COc1ccc2c(=O)cc(-c3ccccc3)oc2c1` [efloxate] is -1.07.
To `COc1ccccc1OCC(O)CN1CCN(CC(=O)Nc2c(C)cccc2C)CC1` (stereo unspecified) [ranolazine] belongs 0.41.
To `CC(=O)Oc1c(C)cccc1C(=O)O` [cresopyrine] belongs -0.299; to `N=c1ccn2c(n1)O[C@H]1[C@H](O)[C@@H](CO)O[C@H]12` [ancitabine hydrochloride], 2.12; to `CO[C@@]1(NC(=O)C2SC(=C(C(N)=O)C(=O)O)S2)C(=O)N2C(C(=O)O)=C(CSc3nnnn3C)CS[C@@H]21` (stereo partly specified) [cefotetan], -0.0215.
In the case of `CC(=O)N[C@@H](CC(=O)O)C(=O)N[C@@H](CCC(=O)O)C(=O)O` [spaglumic acid], the “APOC3 transcript change (Z-score)” value was 0.317.
The figure for `CCC(=O)O[C@H](CC(=O)O)C[N+](C)(C)C` [levocarnitine propionate hydrochloride] is 1; for `CC/C(=C(\c1ccccc1)c1ccc(OCCN(C)C)cc1)c1ccccc1` [Tamoxifen citrate] it is 1.05.
To `CCCc1nc(C(C)(C)O)c(C(=O)OCc2oc(=O)oc2C)n1Cc1ccc(-c2ccccc2-c2nn[nH]n2)cc1` [olmesartan medoxomil] belongs 0.297; to `CC(C(=O)O)c1cccc(CC2CCCC2=O)c1` (stereo unspecified) [loxoprofen], -0.107.
Regarding `CCCCC(CC)C/N=C(N)/N=C(\N)NCCCCCCN/C(N)=N/C(N)=N/CC(CC)CCCC` (stereo unspecified) [alexidine hydrochloride], the “APOC3 transcript change (Z-score)” value was -0.578.
